Source: article doi:10.1101/2022.04.26.489513
No constants are given. Whether binding was seen depends on the method and setting. Some entries that bind do so weakly or less than the wild type.

Molecular target: T1, Tom40 (S. cerevisiae (endogenous in yeast mitochondria)) (UniProt P23644)
T1 sequence: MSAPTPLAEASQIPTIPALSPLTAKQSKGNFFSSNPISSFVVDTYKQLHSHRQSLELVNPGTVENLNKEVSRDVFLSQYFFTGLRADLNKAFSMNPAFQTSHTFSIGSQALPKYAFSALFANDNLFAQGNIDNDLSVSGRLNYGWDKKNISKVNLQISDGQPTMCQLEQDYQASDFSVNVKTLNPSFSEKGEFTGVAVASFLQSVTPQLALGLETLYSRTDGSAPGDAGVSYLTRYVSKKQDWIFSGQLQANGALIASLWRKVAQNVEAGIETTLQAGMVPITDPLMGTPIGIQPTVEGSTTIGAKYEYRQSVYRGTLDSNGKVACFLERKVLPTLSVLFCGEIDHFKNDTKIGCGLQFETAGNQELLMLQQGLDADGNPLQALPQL
Assay: native gel or EMSA

B1: Tom22 (protein, UniProt P49334 1-152)
chain: MVELTEIKDDVVQLDEPQFSRNQAIVEEKASATNNDVVDDEDDSDSDFEDEFDENETLLDRIVALKDIVPPGKRQTISNFFGFTSSFVRNAFTKSGNLAWTLTTTALLLGVPLSLSILAEQQLIEMEKTFDLQSDANNILAQGEKDAAATAN
binding: binds
